Taken from: PubChem BioAssay AID1159584 (Peter MacCallum Cancer Centre, 2016)

Screen: 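Genes whose loss is lethal only together with E-cadherin loss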 (primary screen)
System: human MCF10A breast epithelial cells, parental and CDH1-null
Reagent: siRNA against human genes
Measurement: 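ATP luminescence (CellTiter-Glo) viability per line relative to mean mock wells over all plates, and the ratio of CDH1-null to parental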
Reading the numbers: CDH1-null / parental viability ratio: higher = CDH1-null cells survive relatively better than parental; CDH1-null viability vs mock: higher = more viable CDH1-null cells
In all, the deposit lists about 18,000 reagents; this is a part drawn at random. Not all columns of the deposit are shown. Not stated in the record: the amount of reagent, the time to read-out.

Knock-down of BATF3 (basic leucine zipper ATF-like transcription factor 3) came out at: CDH1-null / parental viability ratio 0.98; CDH1-null viability vs mock (fraction of mock) = 0.9. Depletion of LUZP1 (leucine zipper protein 1) gave: CDH1-null / parental viability ratio 1.06; CDH1-null viability vs mock (fraction of mock) = 0.68. For FAM219B (family with sequence similarity 219 member B), the values are CDH1-null / parental viability ratio 1.18; CDH1-null viability vs mock (fraction of mock) = 0.71. Against AKAP10 (A-kinase anchoring protein 10), the entry reads CDH1-null / parental viability ratio 1.08; CDH1-null viability vs mock (fraction of mock) = 1.06. Depletion of RMND5B (required for meiotic nuclear division 5 homolog B) resulted in: CDH1-null / parental viability ratio 1.45; CDH1-null viability vs mock (fraction of mock) = 0.96. With knock-down of MRPS33 (mitochondrial ribosomal protein S33), the record shows CDH1-null / parental viability ratio 0.96; CDH1-null viability vs mock (fraction of mock) = 1.27.

TOP1MT (DNA topoisomerase I mitochondrial) scored CDH1-null / parental viability ratio 0.84; CDH1-null viability vs mock (fraction of mock) = 0.74. UNC5CL (unc-5 family C-terminal like) showed CDH1-null / parental viability ratio 0.94; CDH1-null viability vs mock (fraction of mock) = 0.68. Silencing of TMEM18 (transmembrane protein 18) resulted in: CDH1-null / parental viability ratio 0.98; CDH1-null viability vs mock (fraction of mock) = 0.78. With knock-down of LAMC1 (laminin subunit gamma 1), the screen gave CDH1-null / parental viability ratio 0.87; CDH1-null viability vs mock (fraction of mock) = 0.67. With knock-down of MAN1A2 (mannosidase alpha class 1A member 2), the record shows CDH1-null / parental viability ratio 1.12; CDH1-null viability vs mock (fraction of mock) = 0.92.

Targets listed so far whose target name starts with L or l (2):
LUZP1 (leucine zipper protein 1): CDH1-null / parental viability ratio = 1.06; CDH1-null viability vs mock (fraction of mock) = 0.68
LAMC1 (laminin subunit gamma 1): CDH1-null / parental viability ratio = 0.87; CDH1-null viability vs mock (fraction of mock) = 0.67

More results:
With knock-down of MED9 (mediator complex subunit 9), the record shows CDH1-null / parental viability ratio 1.02; CDH1-null viability vs mock (fraction of mock) = 0.45. With knock-down of TRIM14 (tripartite motif containing 14) the results were CDH1-null / parental viability ratio 0.94; CDH1-null viability vs mock (fraction of mock) = 0.96. OR10A4 (olfactory receptor family 10 subfamily A member 4) gave CDH1-null / parental viability ratio 0.84; CDH1-null viability vs mock (fraction of mock) = 0.76. With knock-down of LBP (lipopolysaccharide binding protein) the results were CDH1-null / parental viability ratio 0.92; CDH1-null viability vs mock (fraction of mock) = 0.46. HIC2 (HIC ZBTB transcriptional repressor 2) gave CDH1-null / parental viability ratio 1.15; CDH1-null viability vs mock (fraction of mock) = 0.94. ZNF324B (zinc finger protein 324B) gave CDH1-null / parental viability ratio 1; CDH1-null viability vs mock (fraction of mock) = 0.42.

Knock-down of MCTS1 (MCTS1 re-initiation and release factor) resulted in: CDH1-null / parental viability ratio 0.9; CDH1-null viability vs mock (fraction of mock) = 0.9. After knock-down of RMND1 (required for meiotic nuclear division 1 homolog) the results were CDH1-null / parental viability ratio 0.57; CDH1-null viability vs mock (fraction of mock) = 0.46. Knock-down of NAALADL1 (N-acetylated alpha-linked acidic dipeptidase like 1) gave: CDH1-null / parental viability ratio 0.97; CDH1-null viability vs mock (fraction of mock) = 0.7. After knock-down of HOXB5 (homeobox B5), the screen gave CDH1-null / parental viability ratio 0.86; CDH1-null viability vs mock (fraction of mock) = 0.62. Depletion of ABCD4 (ATP binding cassette subfamily D member 4) gave: CDH1-null / parental viability ratio 1.06; CDH1-null viability vs mock (fraction of mock) = 0.88. Silencing of TEC (tec protein tyrosine kinase) resulted in: CDH1-null / parental viability ratio 0.95; CDH1-null viability vs mock (fraction of mock) = 0.82.

Silencing of DPYSL3 (dihydropyrimidinase like 3) resulted in: CDH1-null / parental viability ratio 1.11; CDH1-null viability vs mock (fraction of mock) = 1.13. Against KEAP1 (kelch like ECH associated protein 1), the values are CDH1-null / parental viability ratio 1.24; CDH1-null viability vs mock (fraction of mock) = 0.68. Depletion of SUPT5H (SPT5 homolog, DSIF elongation factor subunit) came out at: CDH1-null / parental viability ratio 0.75; CDH1-null viability vs mock (fraction of mock) = 0.4. For P4HA1 (prolyl 4-hydroxylase subunit alpha 1), the entry reads CDH1-null / parental viability ratio 1; CDH1-null viability vs mock (fraction of mock) = 0.78. SCLT1 (sodium channel and clathrin linker 1) showed CDH1-null / parental viability ratio 0.79; CDH1-null viability vs mock (fraction of mock) = 0.86. Knock-down of TMEM38A (transmembrane protein 38A) came out at: CDH1-null / parental viability ratio 1.02; CDH1-null viability vs mock (fraction of mock) = 0.87.

Knock-down of PLAC1 (placenta associated 1) resulted in: CDH1-null / parental viability ratio 0.77; CDH1-null viability vs mock (fraction of mock) = 0.64. Against MTMR8 (myotubularin related protein 8), the values are CDH1-null / parental viability ratio 1.48; CDH1-null viability vs mock (fraction of mock) = 0.74. DNAH1 (dynein axonemal heavy chain 1) scored CDH1-null / parental viability ratio 1.16; CDH1-null viability vs mock (fraction of mock) = 0.92. For GALNT6 (polypeptide N-acetylgalactosaminyltransferase 6), the entry reads CDH1-null / parental viability ratio 1.09; CDH1-null viability vs mock (fraction of mock) = 0.74. For STXBP5 (syntaxin binding protein 5), the entry reads CDH1-null / parental viability ratio 1.13; CDH1-null viability vs mock (fraction of mock) = 1.06. For TFG (trafficking from ER to golgi regulator), the values are CDH1-null / parental viability ratio 0.98; CDH1-null viability vs mock (fraction of mock) = 0.43.
